In article PMC9478404:
pKd: −log10 of the molar value. For at least one entry, the source does not settle the construct or the ends of the probe. For some of these results: A weaker result is weaker than the reference pair of the same experiment. For some of these results: Where a protein sequence is shown, tags need not be part of it.

Legend:
Experiment in all cases: fluorescence polarization
[1] = target: T1, B-Myb 34-600 (DBD-TAD-NRD) (Homo sapiens) (UniProt P10244); conditions: unphosphorylated, weak affinity similar to unphosphorylated full-length; FP: 20 nM TAMRA-MBS probe, 150 mM NaCl, 25 mM Tris pH 8, 1 mM DTT, 0.1% Tween20; DBD+NRD preincubated 30 min on ice; assay temperature not stated; recombinant protein; residues 34-600; protein details: cleavable N-terminal Strep tag; label: 3' TAMRA on printed strand (/36-TAMSp/)
T1 sequence (looked up): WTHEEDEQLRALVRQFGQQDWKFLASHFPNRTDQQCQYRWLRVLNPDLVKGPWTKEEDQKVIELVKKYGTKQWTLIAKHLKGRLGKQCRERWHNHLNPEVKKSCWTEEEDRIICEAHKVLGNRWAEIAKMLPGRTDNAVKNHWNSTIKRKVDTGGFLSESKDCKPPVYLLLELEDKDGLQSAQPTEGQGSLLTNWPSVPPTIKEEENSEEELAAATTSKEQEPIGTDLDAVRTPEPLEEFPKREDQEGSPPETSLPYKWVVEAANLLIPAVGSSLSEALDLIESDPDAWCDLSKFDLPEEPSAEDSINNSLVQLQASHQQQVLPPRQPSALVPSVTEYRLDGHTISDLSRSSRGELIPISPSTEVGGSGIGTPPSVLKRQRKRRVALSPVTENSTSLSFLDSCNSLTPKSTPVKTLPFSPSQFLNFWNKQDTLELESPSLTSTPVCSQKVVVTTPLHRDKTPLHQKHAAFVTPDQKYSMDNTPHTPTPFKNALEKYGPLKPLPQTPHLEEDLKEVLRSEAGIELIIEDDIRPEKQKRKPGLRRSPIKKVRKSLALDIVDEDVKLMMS

[2] = target: B-Myb full-length, treated with Plk1 only (Homo sapiens) (UniProt P10244); conditions: Plk1 only, no effect compared with unphosphorylated B-Myb; FP: 20 nM TAMRA-MBS probe, 150 mM NaCl, 25 mM Tris pH 8, 1 mM DTT, 0.1% Tween20; DBD+NRD preincubated 30 min on ice; assay temperature not stated; recombinant protein; residues 1-700; protein details: cleavable N-terminal Strep tag; label: 3' TAMRA on printed strand (/36-TAMSp/)
[3] = target: B-Myb 34-370 (DBD-TAD) (Homo sapiens) (UniProt P10244); conditions: FP: 20 nM TAMRA-MBS probe, 150 mM NaCl, 25 mM Tris pH 8, 1 mM DTT, 0.1% Tween20; DBD+NRD preincubated 30 min on ice; assay temperature not stated; recombinant protein; residues 34-370; protein details: GST removed by TEV; label: 3' TAMRA on printed strand (/36-TAMSp/)
[4] = target: B-Myb full-length, phosphorylated by Cdk2-CycA only (Homo sapiens) (UniProt P10244); conditions: phosphorylated by Cdk2-CycA only; FP: 20 nM TAMRA-MBS probe, 150 mM NaCl, 25 mM Tris pH 8, 1 mM DTT, 0.1% Tween20; DBD+NRD preincubated 30 min on ice; assay temperature not stated; recombinant protein; residues 1-700; protein details: cleavable N-terminal Strep tag; label: 3' TAMRA on printed strand (/36-TAMSp/)
[5] = target: B-Myb DBD (Homo sapiens) (UniProt P10244); conditions: FP: 20 nM TAMRA-MBS probe, 150 mM NaCl, 25 mM Tris pH 8, 1 mM DTT, DBD+NRD preincubated 30 min on ice, assay temperature not stated, recombinant protein, residues 34-183, protein details: GST removed by TEV, label: 3' TAMRA on printed strand (/36-TAMSp/)
[6] = target: T2, B-Myb full-length, unphosphorylated (Homo sapiens) (UniProt P10244); conditions: unphosphorylated, weak, potentially nonspecific binding; FP: 20 nM TAMRA-MBS probe, 150 mM NaCl, 25 mM Tris pH 8, 1 mM DTT, 0.1% Tween20; DBD+NRD preincubated 30 min on ice; assay temperature not stated; recombinant protein; residues 1-700; protein details: cleavable N-terminal Strep tag; label: 3' TAMRA on printed strand (/36-TAMSp/)
T2 sequence (looked up): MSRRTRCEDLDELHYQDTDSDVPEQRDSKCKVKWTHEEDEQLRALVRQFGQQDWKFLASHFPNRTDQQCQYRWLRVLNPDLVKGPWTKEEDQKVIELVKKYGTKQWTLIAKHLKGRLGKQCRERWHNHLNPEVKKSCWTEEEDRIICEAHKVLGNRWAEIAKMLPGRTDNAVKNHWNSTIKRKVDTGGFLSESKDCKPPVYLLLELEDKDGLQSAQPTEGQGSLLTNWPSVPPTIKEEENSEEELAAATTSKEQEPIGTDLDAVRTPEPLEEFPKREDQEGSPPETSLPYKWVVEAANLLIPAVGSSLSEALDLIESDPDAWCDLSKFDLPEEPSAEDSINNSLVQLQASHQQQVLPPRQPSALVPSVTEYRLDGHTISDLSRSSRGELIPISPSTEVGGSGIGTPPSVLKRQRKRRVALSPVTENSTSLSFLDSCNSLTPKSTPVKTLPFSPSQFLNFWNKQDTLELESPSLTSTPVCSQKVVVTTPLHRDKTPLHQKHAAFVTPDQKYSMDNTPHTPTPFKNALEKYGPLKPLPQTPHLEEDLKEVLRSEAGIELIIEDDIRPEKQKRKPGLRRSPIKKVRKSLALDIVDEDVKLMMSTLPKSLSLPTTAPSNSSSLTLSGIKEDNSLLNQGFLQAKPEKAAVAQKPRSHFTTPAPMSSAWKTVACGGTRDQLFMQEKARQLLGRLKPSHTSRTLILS

[7] = target: B-Myb full-length, phosphorylated by Cdk2-CycA then Plk1 (Homo sapiens) (UniProt P10244); conditions: phosphorylated by Cdk2-CycA and Plk1; FP: 20 nM TAMRA-MBS probe, 150 mM NaCl, 25 mM Tris pH 8, 1 mM DTT, 0.1% Tween20; DBD+NRD preincubated 30 min on ice; assay temperature not stated; recombinant protein; residues 1-700; protein details: cleavable N-terminal Strep tag; label: 3' TAMRA on printed strand (/36-TAMSp/)

Q: Does “GCATTATAACGGTCTTTTAGCGCCTGG (double strand) [MBS probe]” bind [1]?
A: Result: binds more weakly

Q: Does “GCATTATAACGGTCTTTTAGCGCCTGG (double strand) [MBS probe]” bind [2]?
A: Result: binds more weakly

Q: What about the pKd [3] of the same sequence?
A: Its pKd is 6.00.

Q: And the pKd [4]?
A: The pKd was 5.40.

Q: Does “GCATTATAACGGTCTTTTAGCGCCTGG (double strand) [MBS probe]” bind ([5]; 30 uM Cdk2-CycA-phosphorylated NRD 510-600 S577A in trans, inhibition abrogated, 0.1% …)?
A: Result: binds

Q: Does “GCATTATAACGGTCTTTTAGCGCCTGG (double strand) [MBS probe]” bind ([5]; 30 uM Cdk2-CycA-phosphorylated NRD 510-600 T515A,T518A,T520A in trans, inhibition similar to unphosphorylated mutant, 0.1% Tween20)?
A: Result: binds more weakly

Q: Does “GCATTATAACGGTCTTTTAGCGCCTGG (double strand) [MBS probe]” bind ([5]; 30 uM Cdk2-CycA-phosphorylated NRD 510-600 T538A in trans, inhibition abrogated, 0.1% …)?
A: Result: binds

Q: What about the pKd ([5]; 30 uM Cdk2-CycA-phosphorylated NRD (440-600) in trans, 0.1% Tween20) of the same sequence?
A: The pKd was 6.00.

Q: What about the pKd ([5]; 30 uM NRD 510-600 T515A,T518A,T520A in trans, value assigned from unlabelled figure text, 0.1% Tween20) of the same sequence?
A: The pKd was 5.52.

Q: And the pKd ([5]; 30 uM Plk1-phosphorylated TAD in trans, 0.1% Tween20)?
A: The pKd was 6.05.

Q: What about the pKd ([5]; 30 uM TAD in trans, 0.1% Tween20) of the same sequence?
A: The pKd was 6.05.

Q: What about the pKd ([5]; 30 uM unphosphorylated NRD (440-600) in trans, 0.1% Tween20) of the same sequence?
A: The pKd was 4.80.

Q: What about the pKd ([5]; 30 uM unphosphorylated WT NRD (510-600) in trans, 0.1% Tween20) of the same sequence?
A: Its pKd is 4.80.

Q: What about the pKd ([5]; DBD alone (given as 1.1 +/- 0.1 uM with Fig. 4), 0.1% Tween20) of the same sequence?
A: Its pKd is 6.00.

Q: And the pKd [6]?
A: The pKd was less than 5.00.

Q: What about the pKd [7] of the same sequence?
A: The pKd was 5.52.
